Experimental data as given in PMC12167373.
No constants are given. Whether binding was seen depends on the method and setting. For some of these results: Binding seen in cells or lysates may run through a third protein. Some entries that bind do so weakly or less than the wild type.

Sequences of proteins named here, by UniProt entry; tags and fusion partners are left off. A change or cut given only in a name is not applied to a line headed by its entry. Residues count along the entry.
UniProt Q14694: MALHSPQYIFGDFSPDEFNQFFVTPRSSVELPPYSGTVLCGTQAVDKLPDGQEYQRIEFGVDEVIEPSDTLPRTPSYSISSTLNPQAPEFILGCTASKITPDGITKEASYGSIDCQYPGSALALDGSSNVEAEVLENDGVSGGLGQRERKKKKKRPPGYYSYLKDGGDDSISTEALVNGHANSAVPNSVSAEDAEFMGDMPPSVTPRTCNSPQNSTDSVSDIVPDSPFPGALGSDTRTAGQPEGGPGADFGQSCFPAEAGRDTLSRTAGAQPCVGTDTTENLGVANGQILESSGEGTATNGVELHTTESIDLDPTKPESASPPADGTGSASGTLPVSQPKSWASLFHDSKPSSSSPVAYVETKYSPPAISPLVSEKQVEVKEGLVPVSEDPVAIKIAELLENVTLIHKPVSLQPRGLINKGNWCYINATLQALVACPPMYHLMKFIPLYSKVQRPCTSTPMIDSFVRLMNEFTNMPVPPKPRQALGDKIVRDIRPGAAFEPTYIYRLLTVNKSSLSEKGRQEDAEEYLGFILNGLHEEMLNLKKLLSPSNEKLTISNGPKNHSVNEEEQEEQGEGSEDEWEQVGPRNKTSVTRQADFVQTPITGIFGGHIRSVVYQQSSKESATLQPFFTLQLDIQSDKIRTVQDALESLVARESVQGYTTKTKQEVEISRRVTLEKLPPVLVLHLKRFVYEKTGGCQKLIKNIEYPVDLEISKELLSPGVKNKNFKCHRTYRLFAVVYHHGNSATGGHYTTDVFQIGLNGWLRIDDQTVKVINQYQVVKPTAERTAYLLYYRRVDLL
USP10 fragment, amino acids 1-206: residues 1-206 of Q14694
UniProt P53350: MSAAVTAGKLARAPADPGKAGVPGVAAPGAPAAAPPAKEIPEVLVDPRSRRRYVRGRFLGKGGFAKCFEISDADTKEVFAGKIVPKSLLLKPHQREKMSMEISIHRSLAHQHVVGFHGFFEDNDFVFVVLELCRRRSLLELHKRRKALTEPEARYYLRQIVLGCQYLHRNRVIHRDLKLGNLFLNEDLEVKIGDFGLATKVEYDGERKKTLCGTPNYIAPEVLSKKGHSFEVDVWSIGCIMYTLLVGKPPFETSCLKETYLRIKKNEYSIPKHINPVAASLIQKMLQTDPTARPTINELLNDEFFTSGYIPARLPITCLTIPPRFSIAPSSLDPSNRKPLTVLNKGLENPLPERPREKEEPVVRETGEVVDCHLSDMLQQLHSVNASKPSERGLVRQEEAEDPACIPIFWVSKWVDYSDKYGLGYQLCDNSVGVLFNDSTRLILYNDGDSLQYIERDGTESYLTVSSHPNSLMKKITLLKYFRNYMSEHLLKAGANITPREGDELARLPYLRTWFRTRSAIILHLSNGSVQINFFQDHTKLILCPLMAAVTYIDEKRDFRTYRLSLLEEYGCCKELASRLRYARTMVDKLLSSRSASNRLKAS

Columns and labels:
[1] = target: Ubiquitin-specific peptidase 10 (USP10), endogenous (human (endogenous in PANC-1 and MIAPaCa-2)) (UniProt Q14694); test: co-IP; endogenous proteins in PANC-1 and MIAPaCa-2 cells; IP lysis buffer, primary antibody and protein A/G agarose beads, 4 °C overnight
[2] = target: exogenous USP10, full length (UniProt Q14694); test: co-IP; exogenous proteins from plasmids transfected into HEK293 cells; IP lysis buffer, primary antibody and protein A/G agarose beads, 4 °C overnight; full length and fragments
[3] = target: USP10 fragment, amino acids 1-206 (UniProt Q14694); test: as above
[4] = target: GST-USP10 (UniProt Q14694); test: pull-down; GST-USP10 held on Glutathione Sepharose 4B; 1 μg rPLK1 added in NETN buffer, 4 °C for 4 h; washed three times with NETN buffer; both purified

PLK1, endogenous (from UniProt P53350 1-603) (enzyme)
binding [1]: binds

exogenous PLK1, full length (from UniProt P53350 1-603) (enzyme)
binding [2]: binds
binding [3]: binds

recombinant PLK1 (from UniProt P53350 1-603) (enzyme)
binding [4]: binds
